Primary screen of a compound library

From ChEMBL document CHEMBL3988442, “University of Dundee, Small-Polar-MMV Screening Library” (2021).

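Viability assay of Plasmodium falciparum sporozoites; the read-out is not stated. The concentration is filed as 10 mM, unlikely as a test dose, so the dose is not known. Direction is inferred from retests: higher values go with lower viability. Strong results were mostly tested again. Of about 34,000 compounds tested this way, about 280 (0.84%) reached 50% or more in at least one test.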

Each number is a percent effect as filed. The record does not define 0% and 100%; most values in the screen are far below 50% and negative numbers occur (in some assays of this library far below -100). This is an unselected part of the compounds tested. Two or more numbers in one place are separate tests of the same structure; such repeats can differ widely.

Cn1ccnc1CN1CCCC(CCCc2ccccn2)(C(N)=O)C1 (centres unmarked) gave 4.198%. CCc1noc(CNc2cc(F)ccc2OCC2CCCO2)n1 (centres unmarked) gave -6.941%. Result for CCOCCN1CCN(Cc2cccc(C(=O)N(C)C)c2)CC1C (centres unmarked) was 6.572%. For O=C(O)C(F)(F)F.O=C(O)C(F)(F)F.[H][C@@]12COC[C@]1(CNC(=O)C1CCC1)CN(Cc1cccnc1)C2 the result was -8.945%. For CCn1nc2nc(SCC(=O)O)cc(C(F)F)c2c1C the result was -1.244%. For CC(C)n1cnnc1SCCN(C)c1ccccc1 the result was -15.83%. Result for Cc1nc(C2CCCCN2C(=O)c2ccccc2)ncc1C(=O)N(C)C (centres unmarked) was -6.574%.

Result for CCc1nc(C2CCCN2Cc2nnc(C3CCC3)o2)no1 (centres unmarked) was -1.162%. With Nc1cc2c(nn1)CCN(C(=O)Cc1ccc3c(c1)CCO3)C2 the screen gave 2.743%. With Cc1cnn(CC2CCCN2C(=O)c2n[nH]c(=O)c3ccccc23)c1 (centres unmarked) the screen gave -0.1701%. Cc1nn(C)c(C)c1C1CCCN1Cc1nc(-c2ccccn2)no1 (centres unmarked) gave 36.23% & 33.45% & 29.26%. With Cc1ncccc1NC(=O)c1nc2c(n1C)CCN(C(=O)C1CC1)C2 the screen gave -3.376%. With O=C(CCc1ccc2c(c1)OCO2)N1CCCCC1Cn1cccn1 (centres unmarked) the screen gave 1.667%. Result for CNC(=O)CCc1cc(C)nc(C2CCCN2)n1 (centres unmarked) was -19.31%.

Result for O=C(c1cscn1)N1CCc2ncc(Cn3cncn3)n2CC1 was 6.1%. Result for Cc1nn(C)c(Cl)c1CNCc1cccnc1N1CCN(C)CC1.Cl was -0.3382%. With CN(Cc1ccco1)Cc1cncc2c1CCN(c1ncccn1)C2.Cl.Cl the screen gave -13.1%. Result for CNS(=O)(=O)CCCN1CCCC1c1noc(C2CC2)n1 (centres unmarked) was -4.852%. With COc1ccccc1Nc1nc2c(s1)C(=O)CN(C(=O)CC(C)C)C2 the screen gave 16%. CCn1cc(NC(=O)C2CCN(CC(=O)NC(C)(C)CC)CC2)cn1 gave -10.53%. CC(C)(C)NCc1ccc(OCc2ccc3c(c2)OCCO3)cc1.Cl gave -36.62% & -27.49%.

With COc1cc2cc3c(nc2cc1OC)OCCN(Cc1ccco1)C3 the screen gave -3.06%. Result for CCc1ccc(C(=O)N2CCC(c3nncn3CC)CC2)s1 was 3.105%. Result for CSc1ccc(-c2nc(CN3CCC(NC(C)=O)CC3)c(C)o2)cc1 was 0.03712% & -0.9585% & 6.229%. With O=C(NCc1cccnc1)NC1CCCN(c2ncccn2)C1 (centres unmarked) the screen gave -0.9585%. Cc1nc(C(=O)N2CCc3[nH]nc(Nc4ccccc4)c3C2)co1 gave 7.093%. CCOCCCNC(=O)NCc1c(C)nn(C)c1C read 13.7%. c1ccc2c(N3CCCCC3Cn3cncn3)ncnc2c1 (centres unmarked) gave -7.082%.

Cc1ncc2c(n1)CN(Cc1nc3c(F)cccc3[nH]1)CC2 read -5.506%. CNc1cc2c(nn1)CCN(C(=O)c1ccc(-n3nccc3C)cc1)C2 gave 0.4624%. Result for CN1CCOC(CN(C(=O)CCc2cnn(C)c2)c2nccs2)C1 (centres unmarked) was 9.842%. CCC(=O)N1CCN(C(=O)NCc2c(C)cc(C)cc2C)CC1 gave -4.107%. O=C(O)C(F)(F)F.O=C(O)C(F)(F)F.O=C(O)C(F)(F)F.[H][C@]12C[C@@H](CN3CCCC3)N(c3nccs3)[C@@]1([H])CCN(C)C2 read 1.969%.

The first 3 entries again:

* Cn1ccnc1CN1CCCC(CCCc2ccccn2)(C(N)=O)C1 (centres unmarked) : 4.198%
* CCc1noc(CNc2cc(F)ccc2OCC2CCCO2)n1 (centres unmarked) : -6.941%
* CCOCCN1CCN(Cc2cccc(C(=O)N(C)C)c2)CC1C (centres unmarked) : 6.572%